# Measured values published in patent publication US5563044A (Hoffmann-La Roche Inc., priority 1995, dated 1996).
# Experiment: general procedure: Boc solid-phase peptide synthesis; Boc-Leu-phenylacetamidomethyl (PAM)-resin, 0.33 mmol/g; BOP
# Conditions: coupling step
substance,measurement,setting,value
GRF(1-44)-NH2,step yield,by analytical HPLC at 3.5 h,60%
same,step yield,on GRF(1-43)-OH,37%
